Values quoted from earlier work, collected in PMC3447978, “High-Throughput 1,536-Well Fluorescence Polarization Assays for α1-Acid Glycoprotein and Human Serum Albumin Binding” (PLoS ONE, 2012).
Where two headings read alike, the source gives them in different places.

Test system: AGP and HSA
Settings: cited from earlier work
[1] = validation set, based on literature

SMILES | Protein Binding Preference [1] | Protein Binding Preference
CN(C)CCCN1c2ccccc2CCc2ccccc21 [Imipramine, imipramine] | AGP | –
C=CCc1ccccc1OCC(O)CNC(C)C (centres unmarked) [Alprenolol, alprenolol] | AGP | –
OCCN(CCO)c1nc(N2CCCCC2)c2nc(N(CCO)CCO)nc(N3CCCCC3)c2n1 [Dipyridamole, dipyridamole] | AGP | –
CC(C)NCC(O)COc1cccc2ccccc12 (centres unmarked) [Propranolol, propranolol] | AGP | –
CCCCC1C(=O)N(c2ccccc2)N(c2ccccc2)C1=O [Phenylbutazone, phenylbutazone] | – | HSA
CN(C)CCCN1c2ccccc2Sc2ccc(Cl)cc21 [Chlorpromazine, chlorpromazine] | AGP | –
CN(C)CCC=C1c2ccccc2CCc2ccccc21 [Amitriptyline, amitriptyline] | AGP | –
COc1ccc2c(c1)c(CC(=O)O)c(C)n2C(=O)c1ccc(Cl)cc1 [Indomethacin, indomethacin] | HSA | –
